Reference: PubChem BioAssay AID1671190 (National Center for Advancing Translational Sciences (NCATS), 2021)
In all, about 580,000 compounds went through this assay and about 6,100 (1.1%) were called active. The inconclusive results got no clear call from the source; some entries with a clear call stand among them for comparison. Calls come from the whole dose curve; as a rule, active = well fitted inhibition curve with a large enough effect; inconclusive = small, poorly fitted or top-dose-only effect, or another doubt; inactive = no such curve, though single readings can be large or run the other way. Where the call is inconclusive, the potency comes from a doubtful curve fit.

Chains of the proteins cited; added tags and fusions are not shown.
UniProt P18054, whole entry, looked up: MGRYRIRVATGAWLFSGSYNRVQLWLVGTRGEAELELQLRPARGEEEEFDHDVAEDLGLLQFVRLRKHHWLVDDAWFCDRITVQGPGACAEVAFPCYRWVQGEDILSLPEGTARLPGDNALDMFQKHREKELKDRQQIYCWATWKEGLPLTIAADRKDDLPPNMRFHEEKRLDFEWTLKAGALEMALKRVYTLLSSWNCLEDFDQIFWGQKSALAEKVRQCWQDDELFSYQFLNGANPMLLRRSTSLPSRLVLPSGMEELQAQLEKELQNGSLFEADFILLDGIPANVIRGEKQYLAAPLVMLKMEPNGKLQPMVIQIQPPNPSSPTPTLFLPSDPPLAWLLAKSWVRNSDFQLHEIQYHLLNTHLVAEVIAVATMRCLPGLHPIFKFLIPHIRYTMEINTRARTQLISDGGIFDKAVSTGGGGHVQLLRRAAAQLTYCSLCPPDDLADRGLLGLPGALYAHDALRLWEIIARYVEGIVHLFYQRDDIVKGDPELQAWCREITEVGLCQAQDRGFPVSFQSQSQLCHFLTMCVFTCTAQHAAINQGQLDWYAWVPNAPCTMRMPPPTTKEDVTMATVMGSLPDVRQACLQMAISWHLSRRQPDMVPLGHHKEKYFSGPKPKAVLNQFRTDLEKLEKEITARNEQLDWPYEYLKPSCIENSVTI

These compounds were tested against Polyunsaturated fatty acid lipoxygenase ALOX12 (Homo sapiens) (UniProt P18054) (assay: Primary qHTS assay for inhibitors of human arachidonate 12S-lipoxygenase (ALOX12): Round 2). Settings: purified 12hLO, xylenol orange hydroperoxide absorbance; activity change, negative = inhibition: at 108 µM (top of the series) unless noted.
In short: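 Purified human 12hLO at 150 nM in 25 mM Hepes, 0.01% Triton X-100, pH 7.0, preincubated 15 min at room temperature with compound. Reaction started with 40 uM arachidonic acid, 30 min at room temperature. Hydroperoxide measured by Fe-xylenol orange, 573/405 nm absorbance ratio.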
% is set by controls: 0 for no effect and ±100 for the full control effect; potency is the fitted concentration of half-maximal effect.

| SMILES | Potency | activity change, negative = inhibition |
| --- | --- | --- |
| O=C(O)C(F)(F)C12OC3C4C5CC(C6C5C3C61)C42 (centres undefined) | inconclusive: 0.316 µM [inhibitor, full curve, poor fit] | – |
| Cc1ccc(C)c(C(=O)N2CCc3[nH]nc(C(=O)NCCCc4ccccc4)c3C2)c1 | – | inactive: 31.3% |
| O=C1CSc2ccc(S(=O)(=O)N3CCOCC3)cc2N1 | – | inactive: 65.9% |
| Oc1cccc2c(N=Cc3ccc(F)c(F)c3)cccc12 | active: 22.4 µM | – |
| CC(=O)c1c[nH]c(C(=O)NCC2CCCO2)c1 (centres undefined) | – | inactive: -19.5% |
| CC(=O)N1CCC(N2C[C@H](O)C[C@H]2c2nc(-c3ccc4c(c3)OCO4)no2)CC1 | inconclusive: 25.1 µM [inhibitor, full curve] | – |
| CNC(=S)NNC(=O)c1ccccn1 | – | inactive: 38.4% |
| Cn1c(=O)c2[nH]c(CSCc3ccccc3)nc2n(C)c1=O | inconclusive: 50.1 µM [inhibitor, partial curve, poor fit] | – |
| O=C(COc1ccccc1C(=O)Nc1ccccc1)NC(=O)NCc1ccco1 | inconclusive: 39.8 µM [inhibitor, partial curve, poor fit] | – |
| CCn1cc(CN2C[C@@H](COc3ccccc3)[C@H](C(N)=O)C2)cn1 | – | inactive: 42.2% |
| CCCCCC1CCC(c2ccc(C#Cc3ccc(OC(F)F)cc3)cc2)CC1 (centres undefined) | inconclusive: 70.8 µM [inhibitor, partial curve, poor fit] | – |
| CC(C)OC(=O)c1ccc(NCc2cc(O)ccc2O)cc1 | inconclusive: 12.6 µM [inhibitor, full curve, poor fit] | – |
| Cc1cc(C)cc(NC(=O)C(=O)NCC(c2cccnc2)N2CCOCC2)c1 (centres undefined) | inconclusive: 141 µM [inhibitor, partial curve, poor fit] | – |
| COC(=O)Cn1c(=O)n(CCc2ccccc2)c(=O)c2sc3c(c21)COC(C)(C)C3 | – | inactive: -19% |
| COc1ccc(-c2n[nH]c(=S)n2-c2ccccc2C)cc1OC | inconclusive: 39.8 µM [inhibitor, partial curve, poor fit] | – |
| CCCc1[nH]nc2c1C(c1ccccc1C(F)(F)F)C(C#N)=C(N)O2 (centres undefined) | inconclusive: 50.1 µM [inhibitor, single point] | – |
| Clc1cccc(CNc2ccn3nc(-c4cccc(Cl)c4)cc3n2)c1 | inconclusive: 50.1 µM [inhibitor, partial curve] | – |

| SMILES | Potency | activity change, negative = inhibition |
| --- | --- | --- |
| c1cn2c(NC3CCCCC3)c(-c3ccc(SC4CCCCC4)cc3)nc2cn1 | inconclusive: 56.2 µM [inhibitor, partial curve, poor fit] | – |
| CCc1n(CC(O)COCc2ccccc2)c2ccccc2[n+]1C (centres undefined) | inconclusive: 44.7 µM [inhibitor, partial curve] | – |
| CN1C(=O)c2ccccc2Sc2ccc(NC(=O)N3CCN(c4ccc(F)cc4)CC3)cc21 | inconclusive: 89.1 µM [inhibitor, partial curve, poor fit] | – |
| c1ccc2[nH]c(CSc3ccc4c(c3)OCCO4)nc2c1 | – | inactive: 3.39% |
| O=C(COC(=O)c1c[nH]c2ccccc12)Nc1ccc(CN2CCOCC2)cc1 | – | inactive: -0.759% |
| Cn1cccc1/C=N/n1c(-c2ccc(Cl)cc2)n[nH]c1=S | inconclusive: 2.82 µM [inhibitor, full curve, poor fit] | – |
| O=C(NCc1coc(-c2cccs2)n1)c1ccc(Cl)cc1 | inconclusive: 44.7 µM [inhibitor, partial curve, poor fit] | – |
| CC(C)(C)C(=O)NC(=S)NNC(=O)c1ccc(Cl)cc1Cl | inconclusive: 44.7 µM [inhibitor, partial curve, poor fit] | – |
| NC(=O)c1ccsc1NC(=O)CS(=O)(=O)c1ccc(Cl)cc1 | inconclusive: 20 µM [inhibitor, full curve] | – |
| COc1ccc(CNC(=O)c2ccc3c(c2)N(C(=O)c2ccc(F)cc2)CC3)c(OC)c1 | – | inactive: 4.49% |
| CC(=O)Nc1ccc(CN2CCC3(CN[S+](=O)([O-])c4cnccc4O3)C2)cc1 (centres undefined) | – | inactive: 8.17% [at 6.33 µM] |
| O=C(NC[C@H]1OC[C@@H](N(Cc2cccs2)Cc2cccs2)[C@@H]1O)c1ccccc1 | inconclusive: 112 µM [inhibitor, partial curve, poor fit] | – |
| CCn1nc(C(=O)Nc2ccc3c(c2)OCO3)c2ccccc2c1=O | inconclusive: 89.1 µM [inhibitor, single point] | – |
| COc1nccnc1NC1CCN(C(=O)Cc2c(C)noc2C)CC1 | – | inactive: 5.2% |
| Cc1cc(C)c(/C=N/NC(=O)c2ccccc2)c(C)c1 | – | inactive: -20.9% |
| Cc1ccc(Nc2cc(C)nc(NCc3ccccc3)n2)cc1 | inconclusive: 70.8 µM [inhibitor, partial curve, poor fit] | – |
| Cc1ccn(-c2ccc(-c3ncco3)cc2)c(=O)c1-c1ccc2nc(N)ncc2c1 | inconclusive: 13.7 µM [inhibitor, single point] | – |

Two successive entries out of the list so far, quoted:

| SMILES | Potency | activity change, negative = inhibition |
| --- | --- | --- |
| Oc1cccc2c(N=Cc3ccc(F)c(F)c3)cccc12 | active: 22.4 µM | – |
| CC(=O)c1c[nH]c(C(=O)NCC2CCCO2)c1 (centres undefined) | – | inactive: -19.5% |
